# Results taken from PubChem BioAssay AID743255 (National Center for Advancing Translational Sciences (NCATS), 2014).
# Protein sequences, listed by entry. Tags and fused reporters are not part of them. Lines headed by an entry give the natural chain unless they say otherwise; changes in a name come on top.
# UniProt O94782: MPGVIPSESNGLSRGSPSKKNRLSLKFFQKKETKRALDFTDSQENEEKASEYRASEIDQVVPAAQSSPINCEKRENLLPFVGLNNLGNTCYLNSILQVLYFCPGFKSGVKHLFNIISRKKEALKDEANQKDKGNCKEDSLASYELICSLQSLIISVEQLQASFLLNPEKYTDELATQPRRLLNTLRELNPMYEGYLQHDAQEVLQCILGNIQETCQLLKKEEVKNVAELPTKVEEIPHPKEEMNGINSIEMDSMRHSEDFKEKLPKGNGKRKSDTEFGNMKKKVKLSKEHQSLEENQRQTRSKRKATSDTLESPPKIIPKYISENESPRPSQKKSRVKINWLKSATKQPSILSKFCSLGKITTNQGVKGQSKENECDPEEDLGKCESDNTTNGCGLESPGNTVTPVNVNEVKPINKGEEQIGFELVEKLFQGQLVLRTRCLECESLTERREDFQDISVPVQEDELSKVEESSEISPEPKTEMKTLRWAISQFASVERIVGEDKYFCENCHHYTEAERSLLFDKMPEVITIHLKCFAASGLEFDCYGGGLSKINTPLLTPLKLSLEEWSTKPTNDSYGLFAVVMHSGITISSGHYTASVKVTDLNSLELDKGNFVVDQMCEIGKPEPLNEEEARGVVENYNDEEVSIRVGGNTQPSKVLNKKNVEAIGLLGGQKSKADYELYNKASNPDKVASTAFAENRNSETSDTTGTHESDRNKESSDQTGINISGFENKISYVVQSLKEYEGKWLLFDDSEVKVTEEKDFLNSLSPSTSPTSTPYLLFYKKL
# Hit rate of the full screen: of about 390,000 compounds, about 910 (0.23%) were called active. The shares of active, inactive and inconclusive entries below differ from those in the screen. The call rests on the fitted dose curve; in most records, active means well fitted inhibition curve with a large enough effect; inconclusive means small, poorly fitted or top-dose-only effect; inactive means no such curve, though single readings can be large or run the other way. Where the call is inconclusive, the potency comes from a doubtful curve fit.
# Molecular target: Ubiquitin carboxyl-terminal hydrolase 1 (Homo sapiens) (UniProt O94782)
# Assay: Inhibitors of USP1/UAF1: Primary Screen; further: nearly all actives have a fitted effect of over 60% in size
# Conditions: recombinant USP1/UAF1, Ub-Rhodamine cleavage fluorescence; series mostly up to 57.1 µM
# Summary of the method: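 Step one: compound is pinned into 1nM USP1/UAF1 in HEPES pH 7.8 buffer with TCEP. Step two: 15 min room-temperature incubation. Step three: Ub-Rho (150nM final) starts cleavage, tracked by fluorescence over six one-minute reads.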
# Potency means the concentration at half of the fitted maximal effect.
row,SMILES,Potency
1,COc1ccc(N2CCN(CC(O)COc3c(OC)cccc3OC)CC2)cc1 (stereo not drawn),inactive
2,CN1CCN(c2ccc(S(=O)(=O)N3CCCCC3)cc2NC(=O)CSC(C)(C)C)CC1,"inconclusive: 0.251 µM [inhibitor, full curve, poor fit]"
3,CN(CCc1ccccc1)C(=O)c1ccc(NC(=O)Cc2cccc(NC(=O)C3CCN(S(=O)(=O)c4cccc([N+](=O)[O-])c4)CC3)c2)cc1,"inconclusive: 44.7 µM [inhibitor, partial curve, poor fit]"
4,Cc1ccccc1-c1nc(CN2CCC(C(=O)NC(C)C)CC2)c(C)o1,"inconclusive: 25.1 µM [inhibitor, partial curve, poor fit]"
5,O=C(O)c1ccccc1-c1c2cc(I)c(=O)c(I)c-2oc2c(I)c(O)c(I)cc12,active: 22.4 µM
6,C[C@H](CO)N1C[C@H](C)[C@@H](CN(C)C(=O)Nc2ccc3c(c2)OCO3)Oc2ccc(NC(=O)Nc3ccc(C(F)(F)F)cc3)cc2C1=O,"inconclusive: 44.7 µM [inhibitor, partial curve, poor fit]"
7,C/C=C(\C)C(=O)NCCN1C2=NC[C@H](Cc3ccccc3)N2C[C@H]1Cc1ccc(O)cc1,"inconclusive: 25.1 µM [inhibitor, partial curve]"
8,CCN(CC)S(=O)(=O)c1cccc(C(=O)Nc2ccccc2C(=O)Nc2ccc(OC)cc2)c1,"inconclusive: 44.7 µM [inhibitor, partial curve, poor fit]"
9,Nc1ccc(Nc2ccccc2N)cc1,"inconclusive: 20 µM [inhibitor, partial curve]"
10,COc1ccccc1-c1ccc(SCc2ccccc2F)nn1,"inconclusive: 35.5 µM [inhibitor, single point]"
11,O=C(NCCSCc1ccccc1)C1CCN(S(=O)(=O)Cc2ccccc2)CC1,"inconclusive: 0.631 µM [inhibitor, full curve, poor fit]"
12,CCN(CC)c1ccc(/C=c2/sc3nnc(-c4ccccc4C)n3c2=O)cc1,"inconclusive: 44.7 µM [inhibitor, partial curve, poor fit]"
13,CCOc1cc(/C=C2\N=C(SC(C)C(N)=O)N(c3ccc(OC(F)F)cc3)C2=O)ccc1O (stereo not drawn),"inconclusive: 31.6 µM [inhibitor, partial curve]"
14,CCOc1ccc(CNC(=O)c2cc3ccccn3n2)cc1,"inconclusive: 7.08 µM [inhibitor, partial curve, poor fit]"
15,Brc1c(CSc2nncc3ccccc23)nc2ccccn12,"inconclusive: 39.8 µM [inhibitor, single point]"
16,O=S(=O)(NCCCN1CCN(c2ccccc2F)CC1)c1cccc2cccnc12,inactive
17,Cc1ccc(C(=O)C2=C(O)C(=O)N(Cc3ccco3)C2c2cccc(Br)c2)o1 (stereo not drawn),"inconclusive: 35.5 µM [inhibitor, partial curve, poor fit]"
18,Cc1ccc(CNC(=O)c2c(Nc3c(C)cccc3C)sc(C(=O)c3ccccc3)c2N)cc1,"inconclusive: 5.62 µM [inhibitor, partial curve]"
19,CCOc1ccc(C2C(C(N)=O)=C(C)Nc3nc(SCc4ccccc4F)nn32)cc1 (stereo not drawn),"inconclusive: 5.01 µM [inhibitor, partial curve]"
20,C=CCOc1cccc(/C=C2\C(=O)N(Cc3ccc(C)cc3)C(C)=C2C(=O)OC)c1,"inconclusive: 15.8 µM [inhibitor, partial curve]"
21,COc1ccccc1C(=O)Nc1ccc(C(=O)OCc2cc(=O)n3c4c(sc3n2)CCCC4)cc1,inactive

# Pulled one by one from the entries so far, 3 records:
row,SMILES,Potency
21,COc1ccccc1C(=O)Nc1ccc(C(=O)OCc2cc(=O)n3c4c(sc3n2)CCCC4)cc1,inactive
7,C/C=C(\C)C(=O)NCCN1C2=NC[C@H](Cc3ccccc3)N2C[C@H]1Cc1ccc(O)cc1,"inconclusive: 25.1 µM [inhibitor, partial curve]"
18,Cc1ccc(CNC(=O)c2c(Nc3c(C)cccc3C)sc(C(=O)c3ccccc3)c2N)cc1,"inconclusive: 5.62 µM [inhibitor, partial curve]"

# Carrying on:

row,SMILES,Potency
1,CCc1ccc(C2CC(=O)Nc3c2c(=O)nc2c(C)cccn32)cc1 (stereo not drawn),"inconclusive: 6.31 µM [inhibitor, single point]"
2,O=C(N/N=C/c1ccccc1Cl)c1[nH]c2ccc(Br)cc2c1-c1ccccc1,"inconclusive: 39.8 µM [inhibitor, partial curve, poor fit]"
3,O=C(Cn1nnc(-c2ccccc2F)n1)OCC(=O)c1ccccc1,"inconclusive: 28.2 µM [inhibitor, partial curve]"
4,COC(=O)c1ccccc1S(=O)(=O)N1CCC(NC(=O)C(Cc2cccc(OC)c2OC)NC(C)=O)CC1 (stereo not drawn),inactive
5,CCOc1ccccc1NC(=O)C1=C(C)Nc2ncnn2C1c1ccco1 (stereo not drawn),"inconclusive: 0.251 µM [inhibitor, full curve]"
6,CC(C)(C)c1cc[n+](C2=C([O-])c3ccccc3C(=O)/C2=N\S(=O)(=O)c2cccs2)cc1,"inconclusive: 25.1 µM [inhibitor, partial curve]"
7,CC(C)c1cc(C(=O)OCC(=O)NC2CCS(=O)(=O)C2)c(O)c(C(C)C)c1 (stereo not drawn),inactive
8,COc1cccc(-c2nn(C)c3sc(C(=O)NCc4ccc(OC)cc4OC)cc23)c1,"inconclusive: 14.1 µM [inhibitor, partial curve, poor fit]"
9,CC(C)c1cccc(OCCN2CCCC2)c1,inactive
10,CC1CCCC(C)N1C(=O)COC(=O)CCC1CCCC1 (stereo not drawn),"inconclusive: 50.1 µM [inhibitor, single point]"
11,Cc1cccn2c(=O)c(C(=O)N3CCN(c4ccccc4)CC3)cnc12,inactive
12,CN(C(=O)c1cccc(NC(=O)Cc2ccc(NC(=O)C3CCN(C(=O)c4ccccc4)CC3)cc2)c1)C1CC1,"inconclusive: 0.1 µM [inhibitor, full curve, poor fit]"
13,CC(C)CSc1n[nH]c(N)n1,"inconclusive: 5.01 µM [inhibitor, partial curve]"
14,NC1(C#Cc2ccc3oc(=O)c(-n4cc(-c5ccsc5)nn4)cc3c2)CCCCC1,"inconclusive: 4.47 µM [inhibitor, full curve, poor fit]"
15,Cn1ncc(Cl)c1C(=O)Nc1nc2ccc(Cl)cc2s1,inactive
16,COc1ccc(OC)c(NC(=O)C2=C(C)C(=O)OC23CCN(C(C)C)CC3)c1,inactive
17,Fc1ccc(N2CCN(c3ncnc4onc(-c5ccc(Cl)cc5)c34)CC2)cc1,"inconclusive: 12.6 µM [inhibitor, partial curve, poor fit]"
18,CCCN(CC(=O)Nc1ccccc1C)C(=O)c1ccc2[nH]c3c(c2c1)CC(C)CC3 (stereo not drawn),"inconclusive: 1.58 µM [inhibitor, full curve, poor fit]"
19,COc1cc(/C=N/NC(=S)NCc2ccccc2)ccc1OCC#N,inactive
20,CC(C)Cc1nnc(NC(=O)CCC(=O)N2CCOCC2)s1,"inconclusive: 28.2 µM [inhibitor, single point]"
21,Cc1oc2ncn(CC(C)C)c(=O)c2c1C(=O)NCCCN(C)Cc1ccccc1,"inconclusive: 44.7 µM [inhibitor, partial curve, poor fit]"

row,SMILES,Potency
1,COc1ccc(C2=CC(=O)C[C@H](c3ccc(OC)c(OC)c3)C2)cn1,"inconclusive: 3.16 µM [inhibitor, full curve, poor fit]"
2,COC(=O)c1ccc2c(c1)N(Cc1cc(C)ccc1C)C(=O)c1ccccc1S2(=O)=O,"inconclusive: 7.94 µM [inhibitor, partial curve, poor fit]"
3,CCOc1ccccc1N1CCN(c2nc3ccccc3nc2C(C#N)C(=O)OC)CC1 (stereo not drawn),"inconclusive: 25.1 µM [inhibitor, single point]"
4,N#CC1=C(S)N(c2ccc(F)cc2)C2(CCCCC2)NC1=O,inactive
5,Cc1nc2c(o1)C(=O)c1ccccc1C2=Nc1ccccc1,"inconclusive: 35.5 µM [inhibitor, partial curve, poor fit]"
6,CCc1nnc2c3ccccc3nc(N3CCN(c4cc(Cl)ccc4C)CC3)n12,"inconclusive: 0.891 µM [inhibitor, full curve, poor fit]"
7,C=C(C)CSc1nc2sc3c(c2c(=O)n1C1CCCCC1)CCN(C)C3,"inconclusive: 50.1 µM [inhibitor, partial curve, poor fit]"
8,CCOCCCNC(=S)N1CCN(c2nc(-c3ccc(F)cc3)cs2)CC1,"inconclusive: 25.1 µM [inhibitor, partial curve]"
9,CCCOc1c(Cl)cc(C(=O)Nc2ccc3c(c2)OCO3)cc1OCC,"inconclusive: 39.8 µM [inhibitor, partial curve, poor fit]"
10,COc1cc(C(CCN2CCOCC2)c2c(OC)cc(OC)c3c(C)cc(=O)oc23)cc(OC)c1OC (stereo not drawn),"inconclusive: 3.55 µM [inhibitor, full curve, poor fit]"
11,CCc1ccccc1NC(=O)c1ccc2c(c1)c(C)c(C)n2Cc1ccccc1,"inconclusive: 44.7 µM [inhibitor, partial curve, poor fit]"
12,CC(CO)NS(=O)(=O)c1cccc(Cl)c1F (stereo not drawn),"inconclusive: 0.251 µM [inhibitor, full curve, poor fit]"
13,Cc1cccc(Nc2nc(N3CCCCC3)nc(N3CCCCC3)n2)c1,"inconclusive: 0.447 µM [inhibitor, full curve, poor fit]"
14,CC1=CC(=C(C#N)C#N)C=C(C)N1Cc1ccccc1,"inconclusive: 5.62 µM [inhibitor, full curve]"
15,COCCCNC(=O)CSc1nc2ccccc2c(=O)n1CCCN1CCCCC1,inactive
16,CN(C)c1ccc2nc3c(=O)[nH]c(=O)nc-3n(CC(O)C(O)C(O)CO)c2c1 (stereo not drawn),active: 28.2 µM
17,N#Cc1cc2c([nH]c1=O)CCCC2,inactive
18,FC(F)(F)c1nc2ccccc2c2nc3ccccc3n12,inactive
19,CC(=O)c1ccc2cccc3c2c1N=CN3C,"inconclusive: 2.24 µM [inhibitor, full curve]"
20,O=C(NNc1nc(=O)c2cccnc2s1)c1ccccc1O,"inconclusive: 39.8 µM [inhibitor, partial curve, poor fit]"
21,COc1ccc(C(=O)NCc2ccc3c(c2)CCN3C(=O)c2ccc(Cl)cc2)c(OC)c1,"inconclusive: 0.562 µM [inhibitor, partial curve, poor fit]"
